Publication PMC10104659
These are yes or no findings as the source states them, for the method shown. Binding seen in cells or lysates may run through a third protein. Some results given as binding are weak or reduced against the parent protein; the word gives no strength.

By UniProt entry, the sequences of proteins in these tests, tags left out. Where a name states a change or a piece, a line headed by the entry shows the natural chain unless it says otherwise. Chains listed by the source or under a name are the forms on record and can include a tag or linker. Residues count along the entry.
UniProt P23458: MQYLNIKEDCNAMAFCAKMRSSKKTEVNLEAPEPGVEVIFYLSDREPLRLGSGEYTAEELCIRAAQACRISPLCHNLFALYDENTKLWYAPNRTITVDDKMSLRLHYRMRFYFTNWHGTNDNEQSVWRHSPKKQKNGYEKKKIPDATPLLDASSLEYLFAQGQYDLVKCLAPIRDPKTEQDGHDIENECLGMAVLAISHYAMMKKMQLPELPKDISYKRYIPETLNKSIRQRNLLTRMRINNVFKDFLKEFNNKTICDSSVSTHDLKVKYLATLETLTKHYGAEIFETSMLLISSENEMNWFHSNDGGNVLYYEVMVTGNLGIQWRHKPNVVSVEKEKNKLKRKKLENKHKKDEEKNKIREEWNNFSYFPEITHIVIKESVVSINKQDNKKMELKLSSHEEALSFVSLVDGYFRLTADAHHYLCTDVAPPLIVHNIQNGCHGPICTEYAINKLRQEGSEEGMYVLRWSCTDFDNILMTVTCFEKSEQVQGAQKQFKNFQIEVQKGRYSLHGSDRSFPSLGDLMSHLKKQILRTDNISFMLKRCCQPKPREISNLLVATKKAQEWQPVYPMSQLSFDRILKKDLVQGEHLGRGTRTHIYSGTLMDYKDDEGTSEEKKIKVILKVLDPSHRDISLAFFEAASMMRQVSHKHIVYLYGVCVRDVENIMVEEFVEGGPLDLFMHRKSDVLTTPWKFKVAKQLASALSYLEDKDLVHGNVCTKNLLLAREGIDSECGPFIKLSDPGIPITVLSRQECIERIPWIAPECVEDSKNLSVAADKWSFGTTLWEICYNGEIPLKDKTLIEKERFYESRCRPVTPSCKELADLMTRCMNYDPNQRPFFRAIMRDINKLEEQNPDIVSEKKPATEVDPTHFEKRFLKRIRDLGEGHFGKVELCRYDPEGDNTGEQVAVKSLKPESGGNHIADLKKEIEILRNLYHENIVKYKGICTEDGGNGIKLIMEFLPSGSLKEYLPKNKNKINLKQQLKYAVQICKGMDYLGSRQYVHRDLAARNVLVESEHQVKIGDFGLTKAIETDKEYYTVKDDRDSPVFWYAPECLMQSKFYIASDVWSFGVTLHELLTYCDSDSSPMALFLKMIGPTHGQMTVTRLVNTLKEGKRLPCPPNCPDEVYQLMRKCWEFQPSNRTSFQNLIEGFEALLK
Flag-tagged truncated JAK1, domains 1-3 (1-855): residues 1-855 of P23458
Flag-tagged truncated JAK1, domain 4 (875-1154), kinase domain: residues 875-1154 of P23458
UniProt Q8N3D4: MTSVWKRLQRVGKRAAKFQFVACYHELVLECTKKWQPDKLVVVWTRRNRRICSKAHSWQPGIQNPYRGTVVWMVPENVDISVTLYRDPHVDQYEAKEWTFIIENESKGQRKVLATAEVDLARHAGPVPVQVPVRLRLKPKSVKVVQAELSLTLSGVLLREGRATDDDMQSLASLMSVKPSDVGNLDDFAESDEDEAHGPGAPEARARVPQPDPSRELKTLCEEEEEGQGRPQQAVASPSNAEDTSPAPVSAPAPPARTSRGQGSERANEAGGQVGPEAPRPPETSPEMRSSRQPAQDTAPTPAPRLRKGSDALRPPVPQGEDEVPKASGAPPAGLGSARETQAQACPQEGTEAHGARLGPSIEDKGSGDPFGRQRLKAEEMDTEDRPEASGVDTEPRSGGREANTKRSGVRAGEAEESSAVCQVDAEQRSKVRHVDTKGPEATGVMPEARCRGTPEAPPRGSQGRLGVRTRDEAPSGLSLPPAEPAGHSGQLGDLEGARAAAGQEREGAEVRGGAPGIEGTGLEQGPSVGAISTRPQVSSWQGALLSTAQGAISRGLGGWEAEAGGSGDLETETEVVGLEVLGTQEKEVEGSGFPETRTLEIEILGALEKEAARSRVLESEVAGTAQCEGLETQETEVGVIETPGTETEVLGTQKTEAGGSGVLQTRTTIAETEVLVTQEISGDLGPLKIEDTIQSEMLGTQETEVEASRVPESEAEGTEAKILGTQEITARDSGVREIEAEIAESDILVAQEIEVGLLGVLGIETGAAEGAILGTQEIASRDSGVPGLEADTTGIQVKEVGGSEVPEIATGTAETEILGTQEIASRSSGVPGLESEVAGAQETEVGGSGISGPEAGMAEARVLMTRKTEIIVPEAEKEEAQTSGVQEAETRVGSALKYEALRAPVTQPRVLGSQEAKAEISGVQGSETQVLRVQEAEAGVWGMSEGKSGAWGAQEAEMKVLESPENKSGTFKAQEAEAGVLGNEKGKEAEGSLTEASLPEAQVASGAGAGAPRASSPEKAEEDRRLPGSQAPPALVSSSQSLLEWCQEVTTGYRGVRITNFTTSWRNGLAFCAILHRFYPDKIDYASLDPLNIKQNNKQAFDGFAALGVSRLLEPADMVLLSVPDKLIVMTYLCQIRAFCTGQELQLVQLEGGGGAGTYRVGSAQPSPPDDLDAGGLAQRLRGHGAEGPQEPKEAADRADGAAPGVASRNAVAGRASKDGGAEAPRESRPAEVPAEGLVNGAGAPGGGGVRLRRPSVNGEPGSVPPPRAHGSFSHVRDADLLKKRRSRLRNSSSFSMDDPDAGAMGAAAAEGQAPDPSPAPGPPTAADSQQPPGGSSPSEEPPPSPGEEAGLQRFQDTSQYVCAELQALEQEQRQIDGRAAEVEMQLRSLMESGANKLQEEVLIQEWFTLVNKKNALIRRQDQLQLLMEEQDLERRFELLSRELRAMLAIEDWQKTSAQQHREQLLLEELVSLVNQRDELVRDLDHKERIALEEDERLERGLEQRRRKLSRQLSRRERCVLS

Tests used:
[1] = molecular target: JAK1 (Janus kinase 1), endogenous (human (endogenous in 786-O and A-498)) (UniProt P23458); experiment: co-IP; endogenous EHBP1L1 and JAK1 in 786-O and A-498 cell lysates, with specific monoclonal antibodies; protein A/G magnetic beads, 4 °C overnight
[2] = molecular target: Flag-tagged truncated JAK1, domain 4 (875-1154), kinase domain (UniProt P23458); experiment: co-IP; 786-O cells transfected with Flag-JAK1 constructs; immunoprecipitation with anti-Flag antibody (against JAK1), immunoblot with anti-Flag or anti-EHBP1L1
[3] = molecular target: Flag-tagged truncated JAK1, domains 1-3 (1-855) (UniProt P23458); experiment: as above

For “EHBP1L1 (EH domain-binding protein 1-like protein 1), endogenous (from UniProt Q8N3D4 1-1523)”, the binding [1] was “binds”, the binding [2] was “binds” and the binding [3] was “no binding”.
